This is an account of results in US10363284B2 (POLYPHOR AG, priority 2012, dated 2019).

The data set in a line: general procedure: Fmoc solid-phase peptide synthesis; Fmoc-Pro-O-2-chlorotrityl resin. Particulars: whole synthesis, UV 220 nm.

For the substance “Resin-Pro^16-^D-Lys(iPr)^15-Lys(iPr)^14-Gln^13-Tyr^12-Cys^11-Tyr^10-Arg^9-Orn(iPr)^8-^DPro^7-Ala^6-Ser^5-Cys^4-Tyr^3-His^2-Tyr^1”, the “final HPLC purity” value is recorded as 95%.
As for “Resin-Pro^16-^DPro^15-Lys(iPr)^14-Gln^13-Tyr^12-Cys^11-Tyr^10-Arg^9-Orn(iPr)^8-^DPro^7-Acc^6-Ser^5-Cys^4-Tyr^3-His^2-Tyr^1”, the “final HPLC purity” value was found to be 95%.
